# Measurements taken from publication PMC7862700.
# Amino acid sequences for entries named in this document (tags omitted). A change or cut given only in a name is not applied to a line headed by its entry.
# UniProt Q01892: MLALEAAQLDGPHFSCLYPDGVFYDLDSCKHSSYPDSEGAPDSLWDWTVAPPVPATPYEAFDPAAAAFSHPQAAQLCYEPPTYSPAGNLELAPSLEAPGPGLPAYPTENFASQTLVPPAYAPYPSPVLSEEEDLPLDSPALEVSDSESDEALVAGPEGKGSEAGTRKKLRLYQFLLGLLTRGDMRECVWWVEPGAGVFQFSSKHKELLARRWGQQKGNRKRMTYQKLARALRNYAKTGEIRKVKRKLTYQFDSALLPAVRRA
# This is a selection; strong and weak results do not stand in their true shares. At the low end of the ranking the order means little.
# Target: T1, FLI1 (UniProt Q01543)
# T1 sequence: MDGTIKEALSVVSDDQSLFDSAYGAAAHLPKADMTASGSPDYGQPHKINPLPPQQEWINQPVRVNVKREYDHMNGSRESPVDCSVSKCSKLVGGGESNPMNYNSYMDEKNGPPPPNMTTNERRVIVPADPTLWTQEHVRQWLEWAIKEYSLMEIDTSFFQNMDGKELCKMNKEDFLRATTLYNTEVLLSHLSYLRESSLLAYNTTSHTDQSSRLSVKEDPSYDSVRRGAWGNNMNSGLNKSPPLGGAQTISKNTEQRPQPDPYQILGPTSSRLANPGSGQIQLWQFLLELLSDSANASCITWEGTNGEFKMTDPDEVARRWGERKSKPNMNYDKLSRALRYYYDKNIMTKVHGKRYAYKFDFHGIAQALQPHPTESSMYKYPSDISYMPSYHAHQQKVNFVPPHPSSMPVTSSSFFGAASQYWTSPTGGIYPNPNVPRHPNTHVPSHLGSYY
# Assay: DAPPL (digital affinity profiling via proximity ligation, sequencing)
# Conditions: 10 mM Tris-HCl pH 7.5, 50 mM NaCl, 1 mM DTT, 4% glycerol, room temperature, 30 min; GST-TFs on glutathione beads, 16-mer random dsDNA library, 0.1% …; high values mean tight binding; double strand, one strand shown; scale: fold enrichment (6-mer frequency, TF over GST control)
row,Sequence,binding signal
1,CGATAG,1.07
2,GTCTAA,1.05
3,TCACGT,1.28
4,CAGATT,1.07
5,ATGAAG,1.1
6,CAAGAA,1.03
7,AAGCTG,1.21
8,GGTAAA,0.972
9,GTTCTG,1.14
10,ACAACA,1.22
11,TGTTGT,0.989
12,GCACGA,1.14
13,TCGTAT,0.996
14,CTGACC,1.4
15,AGCGAC,1.09
16,ATGCTC,1.43
17,ACCATT,1.22
18,ACCCTC,1.2
19,ACTGCC,1.47
20,GTTCCC,1.36

row,Sequence,binding signal
1,CGTTCC,1.43
2,CGGCTG,0.816
3,GGCTCG,1.06
4,CCTCCG,1.18
5,ATACAT,1.31
6,CTCGCG,1.47
7,TGCGGC,1.06
8,CACTCC,1.27
9,GTGCAT,0.989
10,AAAGCT,1.06
11,CTAAAT,1.34
12,ACTCGA,1.35
13,TAGCGA,1.1
14,CGACGC,1.11
15,ACTCAG,0.986
16,CTGGCA,1.33
17,AAGAAG,1.05
18,TCTGGT,1.25
19,GTGTTT,1.15
20,CTCGTT,1.18

# Target: T2, EHF (UniProt Q9NZC4)
# T2 sequence: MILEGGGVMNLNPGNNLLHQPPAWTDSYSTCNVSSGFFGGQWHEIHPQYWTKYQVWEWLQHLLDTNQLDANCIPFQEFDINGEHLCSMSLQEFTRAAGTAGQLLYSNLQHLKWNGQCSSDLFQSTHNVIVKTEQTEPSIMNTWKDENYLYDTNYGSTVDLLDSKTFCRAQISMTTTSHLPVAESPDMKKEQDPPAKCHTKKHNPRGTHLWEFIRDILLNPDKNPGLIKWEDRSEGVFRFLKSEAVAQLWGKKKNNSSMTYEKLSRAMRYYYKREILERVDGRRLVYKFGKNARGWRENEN
# Assay: as above
# Conditions: 10 mM Tris-HCl pH 7.5, 50 mM NaCl, 1 mM DTT, 4% glycerol, room temperature, 30 min; GST-TFs on glutathione beads, 16-mer random dsDNA library, 0.1% …; high values mean tight binding; double strand, one strand shown; scale: fold enrichment (6-mer frequency, TF over GST control)
row,Sequence,binding signal
1,CGATAG,1.05
2,CAAGAA,1.04
3,GGTAAA,1.05
4,ACAACA,1.24
5,CTGACC,1.59
6,ACTGCC,1.46
7,GTTCCC,1.28
8,CGTTCC,1.42
9,GGCTCG,0.966
10,ATACAT,1.21
11,CTCGCG,1.32
12,CACTCC,1.17
13,AAAGCT,0.979
14,CTAAAT,1.34
15,ACTCAG,0.978
16,CTGGCA,1.23
17,CTCGTT,1.27

# Target: SPIB (UniProt Q01892)
# Assay: as above
# Conditions: 10 mM Tris-HCl pH 7.5, 50 mM NaCl, 1 mM DTT, 4% glycerol, room temperature, 30 min; GST-TFs on glutathione beads, 16-mer random dsDNA library, 0.1% …; high values mean tight binding; double strand, one strand shown; scale: fold enrichment (6-mer frequency, TF over GST control)
row,Sequence,binding signal
1,CGATAG,1.07
2,ATGAAG,0.917
3,CAAGAA,0.943
4,GGTAAA,1.08
5,TGTTGT,1.12
6,ACCATT,1.11
7,GTTCCC,1.37
8,CGGCTG,1.03
9,CCTCCG,1.48
10,CTCGCG,1.45
11,TGCGGC,0.953
12,CACTCC,1.33
13,GTGCAT,0.997
14,CTAAAT,1.38
15,ACTCGA,1.24
16,TAGCGA,0.995
17,ACTCAG,0.992
18,CTGGCA,1.29
19,AAGAAG,0.949
20,GTGTTT,1.16

# Target: T3, ETV2 (UniProt O00321)
# T3 sequence: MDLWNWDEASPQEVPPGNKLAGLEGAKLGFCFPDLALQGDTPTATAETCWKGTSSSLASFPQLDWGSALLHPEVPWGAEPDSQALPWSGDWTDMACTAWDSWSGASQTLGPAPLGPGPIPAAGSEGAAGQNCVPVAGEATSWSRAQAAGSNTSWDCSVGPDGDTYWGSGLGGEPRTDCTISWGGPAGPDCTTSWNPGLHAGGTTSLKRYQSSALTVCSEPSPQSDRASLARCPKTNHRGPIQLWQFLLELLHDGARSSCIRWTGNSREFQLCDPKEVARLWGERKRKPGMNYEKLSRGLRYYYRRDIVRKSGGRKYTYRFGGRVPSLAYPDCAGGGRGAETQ
# Assay: as above
# Conditions: 10 mM Tris-HCl pH 7.5, 50 mM NaCl, 1 mM DTT, 4% glycerol, room temperature, 30 min; GST-TFs on glutathione beads, 16-mer random dsDNA library, 0.1% …; high values mean tight binding; double strand, one strand shown; scale: fold enrichment (6-mer frequency, TF over GST control)
row,Sequence,binding signal
1,CGATAG,1.16
2,ATGAAG,0.99
3,CAAGAA,0.999
4,GGTAAA,1.03
5,ACAACA,1.28
6,TGTTGT,0.992
7,CTGACC,1.46
8,ACCATT,1.26
9,ACTGCC,1.16
10,GTTCCC,1.12
11,CGTTCC,1.33
12,CGGCTG,0.993
13,GGCTCG,0.931
14,CCTCCG,1.33
15,ATACAT,1.33
16,CTCGCG,1.39
17,TGCGGC,0.921
18,CACTCC,1.17
19,GTGCAT,1.02
20,AAAGCT,1.01
21,CTAAAT,1.33
22,ACTCGA,1.46
23,TAGCGA,0.923
24,ACTCAG,1.09
25,CTGGCA,1.49
26,AAGAAG,1.19
27,GTGTTT,1.02
28,CTCGTT,1.36

# Target: T4, ETV3L (UniProt Q6ZN32)
# T4 sequence: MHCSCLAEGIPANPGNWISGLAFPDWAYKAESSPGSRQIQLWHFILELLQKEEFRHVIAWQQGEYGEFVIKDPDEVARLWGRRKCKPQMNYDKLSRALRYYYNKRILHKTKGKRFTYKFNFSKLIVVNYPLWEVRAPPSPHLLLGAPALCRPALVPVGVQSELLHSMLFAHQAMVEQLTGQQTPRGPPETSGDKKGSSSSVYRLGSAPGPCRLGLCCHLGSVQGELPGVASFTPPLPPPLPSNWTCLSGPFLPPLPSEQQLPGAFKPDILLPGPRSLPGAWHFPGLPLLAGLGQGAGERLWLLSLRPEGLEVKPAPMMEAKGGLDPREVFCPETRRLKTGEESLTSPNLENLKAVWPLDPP
# Assay: as above
# Conditions: 10 mM Tris-HCl pH 7.5, 50 mM NaCl, 1 mM DTT, 4% glycerol, room temperature, 30 min; GST-TFs on glutathione beads, 16-mer random dsDNA library, 0.1% …; high values mean tight binding; double strand, one strand shown; scale: fold enrichment (6-mer frequency, TF over GST control)
row,Sequence,binding signal
1,GTCTAA,0.981
2,TCACGT,1.22
3,CAGATT,0.965
4,AAGCTG,1.05
5,GTTCTG,1.23
6,GCACGA,1
7,TCGTAT,0.944
8,AGCGAC,1.13
9,ATGCTC,1.51
10,ACCCTC,1.08
11,CGACGC,1.08
12,TCTGGT,1.26
